PubChem BioAssay AID686938 | Drosophila RNAi Screening Center, 2013
The screen tested about 23,000 reagents; this is an unselected part of those with a known target gene and a result. In the full data, 75 (0.33%) got an active call. 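Raw plate signals without normalisation; calls rest on plate z-scores that were not deposited; ratio present for only 364 wells.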 Reagents against one gene are numbered here. The record does not give: the dose of the treatment.

Assay: 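Knock-downs reducing store-operated calcium influx in Drosophila cells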 (primary screen)
Cells: Drosophila S2R+ cells
Knock-down reagent: long dsRNA against Drosophila genes, about 0.25 µg dsRNA per well, roughly 10,000 cells
Duration: 5 days of knock-down before the calcium assay
Treatment: thapsigargin (SERCA pump blocker) to empty calcium stores; entry signal taken 4 min after adding it
Measurement: 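Duplicate raw fluo-4 intensities per well from a plate reader, at rest and four minutes after thapsigargin emptied calcium stores; entry-to-rest ratio filled for only some wells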
Reading the numbers: calcium entry signal: higher = stronger calcium signal after store depletion; resting calcium signal: higher = higher resting calcium signal
Active means: 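Hit if the duplicate-averaged plate z-score for entry over resting signal is under −3; wells with weak total dye signal (Fmax z < −2) or more than 5 off-targets removed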
Calls: active = strongly reduced calcium entry; inactive = no strong reduction

| gene | dsRNA no. | calcium entry signal, replicate 1 (fluorescence units) | calcium entry signal, replicate 2 (fluorescence units) | resting calcium signal, replicate 1 (fluorescence units) | resting calcium signal, replicate 2 (fluorescence units) | activity call |
| --- | --- | --- | --- | --- | --- | --- |
| NAAT1 (Nutrient Amino Acid Transporter 1) | 1 | 1.90e7 | 2.22e7 | 1.02e7 | 1.07e7 | inactive |
| EndoU (Endoribonuclease U-specific) | 1 | 1.91e7 | 2.29e7 | 8.78e6 | 1.01e7 | inactive |
| Lon (Lon protease) | 1 | 2.34e7 | 3.54e7 | 1.11e7 | 2.51e7 | inactive |
| fend (forked end) | 1 | 2.41e7 | 3.66e7 | 1.21e7 | 1.59e7 | inactive |
| fend (forked end) | 2 | 2.03e7 | 3.90e7 | 1.15e7 | 1.80e7 | inactive |
| Schip1 (Schwannomin interacting protein 1) | 1 | 4.34e7 | 6.63e7 | 1.90e7 | 2.58e7 | inactive |
| eIF4E3 (eukaryotic translation initiation factor 4E3) | 1 | 4.01e7 | 2.29e7 | 2.71e7 | 9.74e6 | inactive |
| pncr004:X (retired record) | 1 | 3.07e7 | 3.74e7 | 1.54e7 | 1.58e7 | inactive |
| Nuf2 | 1 | 3.63e7 | – | 1.97e7 | – | inactive |
| Acsx2 (Acyl-CoA synthetase X2) | 1 | 4.25e7 | 4.54e7 | 6.29e7 | 2.08e7 | inactive |
| Vps45 (Vacuolar protein sorting 45) | 1 | 4.74e7 | 3.89e7 | 2.56e7 | 2.24e7 | inactive |
| 14-3-3epsilon | 1 | 3.30e7 | 3.29e7 | 4.90e7 | 1.60e7 | inactive |
| CG17287 | 1 | 4.13e7 | 3.84e7 | 1.58e7 | 1.85e7 | inactive |
| CG2336 | 1 | 3.72e7 | 2.89e7 | 1.82e7 | 1.37e7 | inactive |
| Fsn (F-box synaptic protein) | 1 | 2.65e7 | 2.51e7 | 1.30e7 | 1.22e7 | inactive |
| lncRNA:CR31647 (long non-coding RNA:CR31647) | 1 | 2.97e7 | 4.80e7 | 1.41e7 | 2.37e7 | inactive |
| CG43658 | 1 | 2.01e7 | 2.41e7 | 1.18e7 | 1.10e7 | inactive |
| CG43658 | 2 | 2.08e7 | 2.21e7 | 1.17e7 | 1.01e7 | inactive |
| MAN1 | 1 | 3.80e7 | – | 1.91e7 | – | inactive |
| CG6923 | 1 | 3.23e7 | 3.79e7 | 1.43e7 | 1.65e7 | inactive |
| spz6 (spatzle 6) | 1 | 5.01e7 | – | 2.58e7 | – | inactive |
| Obp44a (Odorant-binding protein 44a) | 1 | 3.54e7 | 4.03e7 | 1.69e7 | 1.73e7 | inactive |
| Snmp2 (Sensory neuron membrane protein 2) | 1 | 3.54e7 | 6.23e7 | 1.75e7 | 2.55e7 | inactive |
| Snmp2 (Sensory neuron membrane protein 2) | 2 | 3.86e7 | 5.64e7 | 1.70e7 | 2.47e7 | inactive |
| CG6418 | 1 | 2.94e7 | 2.44e7 | 2.14e7 | 9.46e6 | inactive |
| E(z) (Enhancer of zeste) | 1 | 3.81e7 | 2.49e7 | 2.57e7 | 1.10e7 | inactive |
| cac (cacophony) | 1 | 4.64e7 | 5.54e7 | 2.08e7 | 2.57e7 | inactive |
| cac (cacophony) | 2 | 3.70e7 | 4.07e7 | 1.73e7 | 1.83e7 | inactive |
| Cda5 (Chitin deacetylase-like 5) | 1 | 1.84e7 | 4.77e7 | 1.02e7 | 2.45e7 | inactive |
| Cda5 (Chitin deacetylase-like 5) | 2 | 3.15e7 | 3.37e7 | 1.94e7 | 1.57e7 | inactive |
| Cda5 (Chitin deacetylase-like 5) | 3 | 3.87e7 | 3.07e7 | 1.78e7 | 1.48e7 | inactive |
| Cda5 (Chitin deacetylase-like 5) | 4 | 3.69e7 | 2.13e7 | 1.58e7 | 1.13e7 | inactive |
| zetaTry (zetaTrypsin) | 1 | 2.77e7 | 4.16e7 | 1.50e7 | 1.74e7 | inactive |
| Kua | 1 | 4.30e7 | 4.68e7 | 2.23e7 | 2.06e7 | inactive |
| Enoph (Enolase-phosphatase) | 1 | 3.33e7 | 1.85e7 | 1.49e7 | 9.33e6 | inactive |
| sick (sickie) | 1 | 6.23e7 | 2.79e8 | 2.99e7 | 1.51e7 | inactive |
| sick (sickie) | 2 | 3.26e7 | 4.41e7 | 1.57e7 | 1.68e7 | inactive |
| sick (sickie) | 3 | 2.71e7 | 4.17e7 | 1.40e7 | 1.60e7 | inactive |
| sick (sickie) | 4 | 2.43e7 | 4.40e7 | 1.25e7 | 1.81e7 | inactive |
| sick (sickie) | 5 | 2.09e7 | 4.22e7 | 1.01e7 | 1.84e7 | inactive |
| sick (sickie) | 6 | 2.34e7 | 4.11e7 | 1.16e7 | 1.67e7 | inactive |
| CG13807 | 1 | 2.96e7 | 4.25e7 | 1.62e7 | 2.16e7 | inactive |
| Cyp6g2 (Cytochrome P450 6g2) | 1 | 2.59e7 | 3.22e7 | 1.31e7 | 1.41e7 | inactive |
| CG2269 | 1 | 3.66e7 | 3.48e7 | 1.53e7 | 1.60e7 | inactive |
| mthl14 (methuselah-like 14) | 1 | 2.96e7 | 4.77e7 | 1.56e7 | 2.08e7 | inactive |
| CG13488 | 1 | 3.13e7 | 4.87e7 | 1.43e7 | 1.88e7 | inactive |
| CaMKII (Calcium/calmodulin-dependent protein kinase II) | 1 | 3.74e7 | 4.50e7 | 1.61e7 | 1.92e7 | inactive |
| CG44251 | 1 | 2.26e7 | 3.22e7 | 1.21e7 | 1.29e7 | inactive |
| CG17684 | 1 | 2.86e7 | 5.88e7 | 1.41e7 | 2.77e7 | inactive |
| CG17684 | 2 | 5.25e7 | 4.81e7 | 2.51e7 | 1.90e7 | inactive |
| CG17249 | 1 | 3.84e7 | 3.34e7 | 1.73e7 | 1.67e7 | inactive |
| CG31418 | 1 | 4.05e7 | 3.91e7 | 2.41e7 | 1.82e7 | inactive |
| CG7694 | 1 | 4.69e7 | 5.28e7 | 5.87e7 | 2.31e7 | inactive |
| su(r) (suppressor of rudimentary) | 1 | 3.23e7 | 3.51e7 | 1.64e7 | 1.62e7 | inactive |
| CG9316 | 1 | 3.36e7 | 5.62e7 | 1.72e7 | 2.44e7 | inactive |
| CG18367 | 1 | 4.51e7 | 3.41e7 | 2.01e7 | 1.72e7 | inactive |
| CG15472 | 1 | 2.77e7 | 4.23e7 | 1.36e7 | 1.91e7 | inactive |
| Hpd (4-hydroxyphenylpyruvate dioxygenase) | 1 | 3.61e7 | 3.76e7 | 1.54e7 | 2.65e7 | inactive |

In a second layout: entries from further up
Obp44a (Odorant-binding protein 44a)
- calcium entry signal, replicate 1 (fluorescence units): 3.54e7
- calcium entry signal, replicate 2 (fluorescence units): 4.03e7
- resting calcium signal, replicate 1 (fluorescence units): 1.69e7
- resting calcium signal, replicate 2 (fluorescence units): 1.73e7
- activity call: inactive

Snmp2 (Sensory neuron membrane protein 2) #1
- calcium entry signal, replicate 1 (fluorescence units): 3.54e7
- calcium entry signal, replicate 2 (fluorescence units): 6.23e7
- resting calcium signal, replicate 1 (fluorescence units): 1.75e7
- resting calcium signal, replicate 2 (fluorescence units): 2.55e7
- activity call: inactive

Snmp2 (Sensory neuron membrane protein 2) #2
- calcium entry signal, replicate 1 (fluorescence units): 3.86e7
- calcium entry signal, replicate 2 (fluorescence units): 5.64e7
- resting calcium signal, replicate 1 (fluorescence units): 1.70e7
- resting calcium signal, replicate 2 (fluorescence units): 2.47e7
- activity call: inactive

CG6418
- calcium entry signal, replicate 1 (fluorescence units): 2.94e7
- calcium entry signal, replicate 2 (fluorescence units): 2.44e7
- resting calcium signal, replicate 1 (fluorescence units): 2.14e7
- resting calcium signal, replicate 2 (fluorescence units): 9.46e6
- activity call: inactive

E(z) (Enhancer of zeste)
- calcium entry signal, replicate 1 (fluorescence units): 3.81e7
- calcium entry signal, replicate 2 (fluorescence units): 2.49e7
- resting calcium signal, replicate 1 (fluorescence units): 2.57e7
- resting calcium signal, replicate 2 (fluorescence units): 1.10e7
- activity call: inactive

cac (cacophony) #1
- calcium entry signal, replicate 1 (fluorescence units): 4.64e7
- calcium entry signal, replicate 2 (fluorescence units): 5.54e7
- resting calcium signal, replicate 1 (fluorescence units): 2.08e7
- resting calcium signal, replicate 2 (fluorescence units): 2.57e7
- activity call: inactive

cac (cacophony) #2
- calcium entry signal, replicate 1 (fluorescence units): 3.70e7
- calcium entry signal, replicate 2 (fluorescence units): 4.07e7
- resting calcium signal, replicate 1 (fluorescence units): 1.73e7
- resting calcium signal, replicate 2 (fluorescence units): 1.83e7
- activity call: inactive
